Reference: doi:10.1101/2024.01.11.575193, “Structure and function of the Si3 insertion integrated into the trigger loop/helix of cyanobacterial RNA polymerase” (bioRxiv, 2024)
No constants are given. Whether binding was seen depends on the method and setting. Some results given as binding are weak or reduced against the parent protein; the word gives no strength.

Sequences of proteins named here, by UniProt entry; tags and fusion partners are left off. A change or cut given only in a name is not applied to a line headed by its entry.
UniProt Q31L30: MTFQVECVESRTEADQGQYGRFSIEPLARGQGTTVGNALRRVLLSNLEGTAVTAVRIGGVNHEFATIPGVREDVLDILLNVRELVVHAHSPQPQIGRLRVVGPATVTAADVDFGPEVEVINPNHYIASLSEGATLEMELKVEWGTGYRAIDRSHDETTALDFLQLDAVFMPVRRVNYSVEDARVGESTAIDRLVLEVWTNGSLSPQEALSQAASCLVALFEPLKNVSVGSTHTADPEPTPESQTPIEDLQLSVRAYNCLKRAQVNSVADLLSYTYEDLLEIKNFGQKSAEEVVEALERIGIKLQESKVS
UniProt P42079: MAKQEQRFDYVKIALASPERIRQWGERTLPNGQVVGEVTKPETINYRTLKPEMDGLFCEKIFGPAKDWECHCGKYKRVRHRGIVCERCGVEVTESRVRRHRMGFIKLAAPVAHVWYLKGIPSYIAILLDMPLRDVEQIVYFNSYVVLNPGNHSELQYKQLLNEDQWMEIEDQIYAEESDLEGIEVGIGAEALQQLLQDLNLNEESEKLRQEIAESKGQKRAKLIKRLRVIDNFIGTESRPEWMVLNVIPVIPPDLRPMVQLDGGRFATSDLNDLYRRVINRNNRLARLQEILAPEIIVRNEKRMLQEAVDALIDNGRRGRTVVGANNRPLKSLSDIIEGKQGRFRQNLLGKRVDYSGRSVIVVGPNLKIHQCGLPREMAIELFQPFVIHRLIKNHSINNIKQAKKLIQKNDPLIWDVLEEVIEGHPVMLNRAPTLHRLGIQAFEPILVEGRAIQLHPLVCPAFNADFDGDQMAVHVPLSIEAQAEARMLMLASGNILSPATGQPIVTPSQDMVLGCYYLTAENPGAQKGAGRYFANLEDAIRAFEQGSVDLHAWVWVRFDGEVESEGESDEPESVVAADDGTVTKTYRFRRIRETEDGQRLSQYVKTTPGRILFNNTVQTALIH
UniProt Q31MH9: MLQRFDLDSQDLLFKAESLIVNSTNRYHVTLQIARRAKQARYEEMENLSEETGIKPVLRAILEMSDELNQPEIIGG

Assays:
[1] = molecular target: T1, β'2 subunit of Synechococcus elongatus RNA polymerase (Synechococcus elongatus PCC 7942) (UniProt Q31N15); assay: cryo-EM structure; iNTP-free EC-NusG: 5 μM cyRNAP with DNA/RNA scaffold, then 7 μM NusG, 37 °C, storage buffer, CHAPSO added before vitrification; 3 Å; both purified
T1 sequence: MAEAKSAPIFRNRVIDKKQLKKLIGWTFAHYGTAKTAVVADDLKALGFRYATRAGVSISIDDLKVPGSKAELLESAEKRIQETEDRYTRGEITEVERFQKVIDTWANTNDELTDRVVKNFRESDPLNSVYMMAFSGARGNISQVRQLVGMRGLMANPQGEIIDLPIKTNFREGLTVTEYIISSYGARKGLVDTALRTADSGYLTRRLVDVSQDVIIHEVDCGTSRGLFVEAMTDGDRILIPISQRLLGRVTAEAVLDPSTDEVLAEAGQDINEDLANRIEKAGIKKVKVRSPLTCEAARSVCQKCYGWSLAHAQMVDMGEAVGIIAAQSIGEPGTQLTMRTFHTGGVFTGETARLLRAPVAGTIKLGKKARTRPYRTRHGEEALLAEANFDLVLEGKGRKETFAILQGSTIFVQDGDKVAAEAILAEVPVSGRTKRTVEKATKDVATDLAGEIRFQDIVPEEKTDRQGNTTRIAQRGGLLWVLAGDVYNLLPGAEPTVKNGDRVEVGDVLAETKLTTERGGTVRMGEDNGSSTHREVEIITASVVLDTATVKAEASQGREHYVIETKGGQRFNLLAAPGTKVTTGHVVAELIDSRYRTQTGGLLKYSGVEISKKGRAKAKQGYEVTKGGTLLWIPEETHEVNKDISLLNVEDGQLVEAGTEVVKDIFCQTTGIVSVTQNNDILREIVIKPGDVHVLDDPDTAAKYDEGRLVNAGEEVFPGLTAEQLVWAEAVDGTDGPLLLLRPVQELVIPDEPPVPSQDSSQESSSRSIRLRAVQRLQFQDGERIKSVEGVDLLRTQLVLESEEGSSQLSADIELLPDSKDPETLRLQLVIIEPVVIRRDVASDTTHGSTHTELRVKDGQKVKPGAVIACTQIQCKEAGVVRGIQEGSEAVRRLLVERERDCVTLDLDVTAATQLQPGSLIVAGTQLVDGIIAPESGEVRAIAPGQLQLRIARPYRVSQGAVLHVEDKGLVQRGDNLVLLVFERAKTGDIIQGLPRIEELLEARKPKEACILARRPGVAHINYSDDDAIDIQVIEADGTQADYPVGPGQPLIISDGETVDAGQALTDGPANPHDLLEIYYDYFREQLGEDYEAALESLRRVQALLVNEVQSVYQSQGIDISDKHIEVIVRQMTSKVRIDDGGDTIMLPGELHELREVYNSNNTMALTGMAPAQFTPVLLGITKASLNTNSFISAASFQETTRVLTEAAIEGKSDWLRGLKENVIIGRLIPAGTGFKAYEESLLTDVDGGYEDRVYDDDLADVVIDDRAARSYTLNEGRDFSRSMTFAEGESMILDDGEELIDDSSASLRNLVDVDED

[2] = molecular target: T2, Synechococcus elongatus RNA polymerase core enzyme (wild type) (Synechococcus elongatus PCC 7942) (UniProt Q31L30+Q31N17+P42079+Q31N15+Q31MH9); assay: as above
[3] = molecular target: T2, Synechococcus elongatus RNA polymerase core enzyme (wild type) (Synechococcus elongatus PCC 7942); assay: cryo-EM structure; iNTP-bound EC-NusG: EC with NusG plus 1 mM 3'-deoxyATP and CTP, 5 min at 37 °C; 2.79 Å; both purified
[4] = molecular target: T3, β subunit of Synechococcus elongatus RNA polymerase (Synechococcus elongatus PCC 7942) (UniProt Q31N17); assay: cryo-EM structure; iNTP-free EC-NusG: 5 μM cyRNAP with DNA/RNA scaffold, then 7 μM NusG, 37 °C, storage buffer, CHAPSO added before vitrification; 3 Å; both purified
T3 sequence: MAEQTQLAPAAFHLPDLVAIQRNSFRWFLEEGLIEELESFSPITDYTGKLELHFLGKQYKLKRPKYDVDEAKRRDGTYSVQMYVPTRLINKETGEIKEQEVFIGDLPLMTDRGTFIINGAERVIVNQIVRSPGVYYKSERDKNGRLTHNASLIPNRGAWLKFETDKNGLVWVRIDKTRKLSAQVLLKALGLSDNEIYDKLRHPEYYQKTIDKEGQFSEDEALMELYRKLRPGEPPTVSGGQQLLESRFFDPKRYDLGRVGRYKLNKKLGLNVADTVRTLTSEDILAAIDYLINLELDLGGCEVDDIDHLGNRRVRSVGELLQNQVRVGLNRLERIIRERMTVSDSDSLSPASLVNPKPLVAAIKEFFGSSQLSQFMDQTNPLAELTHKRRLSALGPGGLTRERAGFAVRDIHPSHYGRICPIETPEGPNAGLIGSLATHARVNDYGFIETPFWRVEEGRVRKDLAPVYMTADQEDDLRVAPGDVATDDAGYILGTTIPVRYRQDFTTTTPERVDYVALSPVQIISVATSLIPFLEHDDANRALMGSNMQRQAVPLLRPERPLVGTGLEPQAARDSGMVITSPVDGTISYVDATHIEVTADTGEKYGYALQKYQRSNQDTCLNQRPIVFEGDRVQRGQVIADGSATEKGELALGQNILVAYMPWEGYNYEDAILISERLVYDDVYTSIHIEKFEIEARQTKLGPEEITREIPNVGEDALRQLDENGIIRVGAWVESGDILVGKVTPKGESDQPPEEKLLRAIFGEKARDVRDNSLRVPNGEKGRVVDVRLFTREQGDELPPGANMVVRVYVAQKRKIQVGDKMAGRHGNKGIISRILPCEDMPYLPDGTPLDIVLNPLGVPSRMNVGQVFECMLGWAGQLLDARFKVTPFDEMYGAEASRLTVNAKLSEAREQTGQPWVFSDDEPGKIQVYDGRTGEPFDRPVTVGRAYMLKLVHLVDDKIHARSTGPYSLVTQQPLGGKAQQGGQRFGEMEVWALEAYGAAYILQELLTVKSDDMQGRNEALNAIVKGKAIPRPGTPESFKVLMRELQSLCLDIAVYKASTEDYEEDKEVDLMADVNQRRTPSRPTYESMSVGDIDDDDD

B1: Synechococcus elongatus NusG (protein, UniProt Q31QK2 1-205)
chain: MTDQYEEQLLSADDSVASEKARWYAVQVASGCEKRVKATLEQRVQTLDAANRILQVEIPETPIVKLKKDGSRQSAEEKVFPGYVLVRMILDDDAWQIVRNTPHVINFVGAEQKRPYGRGRGHVKPMPLSPGEVGRIFKRAQEQKPTVKIDLAEGDQILVLSGPFKDFEGTVIEVSPERSKLKALLSIFGRDTPVELEFNQVQKQN
[1]
  binding: binds weakly
[2]
  binding: binds
[3]
  binding: binds

B2: β'2 subunit of Synechococcus elongatus RNA polymerase (protein, UniProt Q31N15 1-1318)
chain: MAEAKSAPIFRNRVIDKKQLKKLIGWTFAHYGTAKTAVVADDLKALGFRYATRAGVSISIDDLKVPGSKAELLESAEKRIQETEDRYTRGEITEVERFQKVIDTWANTNDELTDRVVKNFRESDPLNSVYMMAFSGARGNISQVRQLVGMRGLMANPQGEIIDLPIKTNFREGLTVTEYIISSYGARKGLVDTALRTADSGYLTRRLVDVSQDVIIHEVDCGTSRGLFVEAMTDGDRILIPISQRLLGRVTAEAVLDPSTDEVLAEAGQDINEDLANRIEKAGIKKVKVRSPLTCEAARSVCQKCYGWSLAHAQMVDMGEAVGIIAAQSIGEPGTQLTMRTFHTGGVFTGETARLLRAPVAGTIKLGKKARTRPYRTRHGEEALLAEANFDLVLEGKGRKETFAILQGSTIFVQDGDKVAAEAILAEVPVSGRTKRTVEKATKDVATDLAGEIRFQDIVPEEKTDRQGNTTRIAQRGGLLWVLAGDVYNLLPGAEPTVKNGDRVEVGDVLAETKLTTERGGTVRMGEDNGSSTHREVEIITASVVLDTATVKAEASQGREHYVIETKGGQRFNLLAAPGTKVTTGHVVAELIDSRYRTQTGGLLKYSGVEISKKGRAKAKQGYEVTKGGTLLWIPEETHEVNKDISLLNVEDGQLVEAGTEVVKDIFCQTTGIVSVTQNNDILREIVIKPGDVHVLDDPDTAAKYDEGRLVNAGEEVFPGLTAEQLVWAEAVDGTDGPLLLLRPVQELVIPDEPPVPSQDSSQESSSRSIRLRAVQRLQFQDGERIKSVEGVDLLRTQLVLESEEGSSQLSADIELLPDSKDPETLRLQLVIIEPVVIRRDVASDTTHGSTHTELRVKDGQKVKPGAVIACTQIQCKEAGVVRGIQEGSEAVRRLLVERERDCVTLDLDVTAATQLQPGSLIVAGTQLVDGIIAPESGEVRAIAPGQLQLRIARPYRVSQGAVLHVEDKGLVQRGDNLVLLVFERAKTGDIIQGLPRIEELLEARKPKEACILARRPGVAHINYSDDDAIDIQVIEADGTQADYPVGPGQPLIISDGETVDAGQALTDGPANPHDLLEIYYDYFREQLGEDYEAALESLRRVQALLVNEVQSVYQSQGIDISDKHIEVIVRQMTSKVRIDDGGDTIMLPGELHELREVYNSNNTMALTGMAPAQFTPVLLGITKASLNTNSFISAASFQETTRVLTEAAIEGKSDWLRGLKENVIIGRLIPAGTGFKAYEESLLTDVDGGYEDRVYDDDLADVVIDDRAARSYTLNEGRDFSRSMTFAEGESMILDDGEELIDDSSASLRNLVDVDED
[4]
  binding: binds
